Results are given in words; binding and its absence hold for the method and conditions named. For some of these results: In cells and extracts the contact can be indirect. Some binding calls cover weakened binding; strength is not graded here. For some of these results: Where a sequence is shown, tags or fusion partners need not be part of it.
Tests used:
[1] = target: T1, FLOT1-mGFP5 (Arabidopsis) (UniProt Q501E6); experiment: co-IP
T1 sequence: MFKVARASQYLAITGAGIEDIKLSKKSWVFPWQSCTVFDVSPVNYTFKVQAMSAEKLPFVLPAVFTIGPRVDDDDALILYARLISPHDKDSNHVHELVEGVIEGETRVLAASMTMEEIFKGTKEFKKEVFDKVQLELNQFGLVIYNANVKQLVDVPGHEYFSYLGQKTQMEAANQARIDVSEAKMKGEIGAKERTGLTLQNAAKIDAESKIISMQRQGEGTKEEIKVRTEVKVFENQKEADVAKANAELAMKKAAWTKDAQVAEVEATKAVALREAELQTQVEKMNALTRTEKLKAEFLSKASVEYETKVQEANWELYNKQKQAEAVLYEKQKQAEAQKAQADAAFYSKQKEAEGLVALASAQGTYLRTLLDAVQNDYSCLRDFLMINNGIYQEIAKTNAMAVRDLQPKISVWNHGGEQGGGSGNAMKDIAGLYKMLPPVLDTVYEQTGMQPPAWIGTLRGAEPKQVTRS

Protein sequences, listed by entry. Tags and fused reporters are not part of them.
UniProt O04719: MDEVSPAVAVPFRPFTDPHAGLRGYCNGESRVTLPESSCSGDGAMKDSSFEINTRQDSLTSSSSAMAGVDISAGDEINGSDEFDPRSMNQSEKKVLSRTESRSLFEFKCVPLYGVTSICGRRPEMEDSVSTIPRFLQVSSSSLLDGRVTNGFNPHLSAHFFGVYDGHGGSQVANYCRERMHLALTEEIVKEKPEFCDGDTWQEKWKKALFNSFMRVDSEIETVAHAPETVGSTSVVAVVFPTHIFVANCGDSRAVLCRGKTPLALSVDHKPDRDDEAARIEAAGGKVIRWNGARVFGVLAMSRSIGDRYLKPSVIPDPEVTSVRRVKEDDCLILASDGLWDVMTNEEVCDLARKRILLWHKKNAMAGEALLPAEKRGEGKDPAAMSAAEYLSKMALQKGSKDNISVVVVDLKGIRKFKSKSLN

HAB2-mGFP5 (Arabidopsis) = target: T2, HAB2-mGFP5 (Arabidopsis) (UniProt Q9LNP9); experiment: co-IP
T2 sequence: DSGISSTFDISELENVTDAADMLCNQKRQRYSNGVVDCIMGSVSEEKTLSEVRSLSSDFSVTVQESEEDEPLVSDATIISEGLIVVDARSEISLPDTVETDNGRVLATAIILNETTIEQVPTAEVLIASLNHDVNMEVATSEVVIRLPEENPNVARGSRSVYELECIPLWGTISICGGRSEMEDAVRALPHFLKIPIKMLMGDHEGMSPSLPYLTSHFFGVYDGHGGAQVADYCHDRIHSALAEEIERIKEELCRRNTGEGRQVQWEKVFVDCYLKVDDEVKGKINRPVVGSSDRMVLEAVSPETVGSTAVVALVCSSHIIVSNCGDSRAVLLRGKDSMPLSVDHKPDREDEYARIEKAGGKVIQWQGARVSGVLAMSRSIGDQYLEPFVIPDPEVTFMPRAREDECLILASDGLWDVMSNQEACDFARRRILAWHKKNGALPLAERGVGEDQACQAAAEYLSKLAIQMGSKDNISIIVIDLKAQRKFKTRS

[2] = target: T3, SnRK2.2-mGFP5 (Arabidopsis) (UniProt Q39192); experiment: co-IP
T3 sequence: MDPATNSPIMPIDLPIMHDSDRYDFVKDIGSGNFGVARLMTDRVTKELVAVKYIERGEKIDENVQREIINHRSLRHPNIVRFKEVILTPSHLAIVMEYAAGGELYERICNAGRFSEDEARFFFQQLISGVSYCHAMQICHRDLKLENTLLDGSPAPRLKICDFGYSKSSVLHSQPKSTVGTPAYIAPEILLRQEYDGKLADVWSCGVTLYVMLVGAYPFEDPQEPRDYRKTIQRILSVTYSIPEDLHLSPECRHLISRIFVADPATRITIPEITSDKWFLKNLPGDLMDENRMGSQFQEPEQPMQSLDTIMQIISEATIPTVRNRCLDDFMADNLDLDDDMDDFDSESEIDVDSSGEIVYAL

[3] = target: T4, VAMP724-mGFP5 (Arabidopsis) (UniProt O23429); experiment: co-IP
T4 sequence: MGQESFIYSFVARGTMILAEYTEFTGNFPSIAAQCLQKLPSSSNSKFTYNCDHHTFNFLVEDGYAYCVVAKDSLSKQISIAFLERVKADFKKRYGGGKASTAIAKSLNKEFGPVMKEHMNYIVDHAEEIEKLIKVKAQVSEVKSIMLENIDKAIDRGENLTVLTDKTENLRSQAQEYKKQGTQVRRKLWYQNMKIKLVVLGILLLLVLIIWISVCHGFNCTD

YFPN-ABI2 (Arabidopsis) = YFPN-ABI2 (Arabidopsis) (UniProt O04719); experiment: split reporter
YFPN-FLOT1 (Arabidopsis) = target: T5, YFPN-FLOT1 (Arabidopsis) (UniProt Q501E6); experiment: split reporter
T5 sequence: T1 sequence

YFPN-HAI2 (Arabidopsis) = target: T6, YFPN-HAI2 (Arabidopsis) (UniProt Q9LNW3); experiment: split reporter
T6 sequence: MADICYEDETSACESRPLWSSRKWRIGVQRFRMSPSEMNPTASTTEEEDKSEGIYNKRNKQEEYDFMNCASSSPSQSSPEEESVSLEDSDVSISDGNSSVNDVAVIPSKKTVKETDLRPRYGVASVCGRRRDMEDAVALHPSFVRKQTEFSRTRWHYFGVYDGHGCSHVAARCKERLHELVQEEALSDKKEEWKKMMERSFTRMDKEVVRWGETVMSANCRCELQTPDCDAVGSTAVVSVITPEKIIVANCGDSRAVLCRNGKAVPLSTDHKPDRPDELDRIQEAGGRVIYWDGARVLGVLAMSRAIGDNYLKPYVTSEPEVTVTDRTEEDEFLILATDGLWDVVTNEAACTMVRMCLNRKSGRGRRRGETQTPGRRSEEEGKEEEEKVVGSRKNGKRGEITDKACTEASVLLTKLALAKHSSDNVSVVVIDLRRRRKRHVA

[4] = target: T7, YFPN-SnRK2.2 (Arabidopsis) (UniProt Q39192); experiment: split reporter
T7 sequence: T3 sequence

[5] = target: T8, YFPN-SnRK2.3 (Arabidopsis) (UniProt Q39193); experiment: split reporter
T8 sequence: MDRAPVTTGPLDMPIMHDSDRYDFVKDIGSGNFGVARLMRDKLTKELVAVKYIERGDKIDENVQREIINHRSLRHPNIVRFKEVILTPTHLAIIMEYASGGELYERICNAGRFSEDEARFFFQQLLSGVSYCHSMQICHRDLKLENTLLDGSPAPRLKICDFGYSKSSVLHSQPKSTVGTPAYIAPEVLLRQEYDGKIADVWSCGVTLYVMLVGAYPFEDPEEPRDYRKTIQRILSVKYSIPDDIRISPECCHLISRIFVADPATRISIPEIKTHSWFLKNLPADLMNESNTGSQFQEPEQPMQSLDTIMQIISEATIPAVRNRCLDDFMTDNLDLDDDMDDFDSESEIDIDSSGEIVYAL

[6] = target: T9, YFPN-VAMP724 (Arabidopsis) (UniProt O23429); experiment: split reporter
T9 sequence: T4 sequence

HAB2-BD (Arabidopsis) = target: T10, HAB2-BD (Arabidopsis) (UniProt Q9LNP9); experiment: two-hybrid
T10 sequence: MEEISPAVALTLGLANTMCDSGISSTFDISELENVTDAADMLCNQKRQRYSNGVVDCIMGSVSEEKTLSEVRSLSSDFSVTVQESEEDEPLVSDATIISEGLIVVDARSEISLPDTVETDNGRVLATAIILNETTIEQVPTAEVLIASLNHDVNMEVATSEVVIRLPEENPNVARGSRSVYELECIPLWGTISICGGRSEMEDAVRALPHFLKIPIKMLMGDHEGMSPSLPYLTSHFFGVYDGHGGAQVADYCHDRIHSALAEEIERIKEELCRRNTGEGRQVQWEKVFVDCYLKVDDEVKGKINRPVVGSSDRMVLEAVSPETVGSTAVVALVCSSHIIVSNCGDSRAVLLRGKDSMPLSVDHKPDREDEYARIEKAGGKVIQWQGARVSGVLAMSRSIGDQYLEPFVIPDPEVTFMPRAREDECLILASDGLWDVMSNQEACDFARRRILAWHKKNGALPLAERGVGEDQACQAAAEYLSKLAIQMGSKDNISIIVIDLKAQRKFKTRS

SnRK2.2-BD (Arabidopsis) = target: T11, SnRK2.2-BD (Arabidopsis) (UniProt Q39192); experiment: two-hybrid
T11 sequence: T3 sequence

[7] = target: T12, VAMP724 in pCAMBIA1300-NLuc (Arabidopsis) (UniProt O23429); experiment: split reporter
T12 sequence: T4 sequence

Measured: binding

B1: CAR1-mCherry (protein, UniProt Q9FHP6 1-168)
chain: MENLVGLLRIHVKRGVNLAIRDISSSDPYIVVHCGKQKLKTRVVKHSVNPEWNDDLTLSVTDPNLPIKLTVYDYDLLSADDKMGEAEFHIGPFIEAIKFAHQLGPGLPNGTIIKKIEPSRKNCLSESSHIVLNQGKIVQNMFLRLQHVECGEVELQLEWIDVPGSRGI
binds: [1] | HAB2-mGFP5 (Arabidopsis) | [2] | [3]

B2: CAR1-YFPC (protein, UniProt Q9FHP6 1-168)
chain: B1 chain
binds: YFPN-ABI2 (Arabidopsis) | YFPN-FLOT1 (Arabidopsis) | YFPN-HAI2 (Arabidopsis) | [4] | [5] | [6]

B3: CAR1-AD (protein, UniProt Q9FHP6 1-168)
chain: B1 chain
binds: HAB2-BD (Arabidopsis) | SnRK2.2-BD (Arabidopsis)

B4: CAR1 in pCAMBIA1300-CLuc (protein, UniProt Q9FHP6 1-168)
chain: B1 chain
binds: [7]

— publication doi:10.1101/2023.09.18.558310
